Test results published in patent publication US20220136016A1, “MODIFIED CHLORAMPHENICOL […] AND BIOSYNTHESIS METHOD OF MAKING ESTERS USING SAME” (UNIVERSITY OF TENNESSEE RESEARCH FOUNDATION, priority 2020, published 2022).
Some results were stated once for a whole list of compounds, not compound by compound.

How the values were obtained:
[1] = Specific activity of wild type CATs toward isobutanol; type: biochemical; conditions: 100 mM isobutanol, 50° C.; selected threshold (FIG. 2B)
[2] = Kinetic thermostability: activity loss after one-hour incubation at elevated temperatures; type: physicochemical; conditions: 70° C.; residual activity at 37° C. with chloramphenicol and acetyl-CoA, normalized to samples incubated at 50° C.

Molecule | specific activity toward isobutanol [1] | activity retained after one-hour incubation [2]
CATec2: wild type CAT, type A, Escherichia coli (protein, listed as Escherichia coli, SITE (1)..(213) CAT2_ECOLX, Type A, wild type CAT, type A, Escherichia coli) MNFTRIDLNTWNRREHFALYRQQIKCGFSLTTKLDITALRTALAETGYKFYPLMIYLISRAVNQFPEFRMALKDNELIYWDQSDPVFTVFHKETETFSALSCRYFPDLSEFMAGYNAVTAEYQHDTRLFPQGNLPENHLNISSLPWVSFDGFNLNITGNDDYFAPVFTMAKFQQEGDRVLLPVSVQVHHAVCDGFHAARFINTLQLMCDNILK | greater than 5 μmol/min/mg protein | more than 95%
CAT1y: wild type CAT, type A, Lysinibacillus boronitolerans (protein, Lysinibacillus boronitolerans; SITE (1)..(208) CAT_LYS, Type A) MRFNKIDINNWERKEIFNHFLNQQTSFSITRTIDITELYKITKDKGYKFYPVLIFLITHVANSHKHFRMNFNSAGEFGYWDKVVPMYTIFDKQSELFSAIYTNTDEGFKKFYENYISDTEKFNGKGKLFPKTPIPENVVNISMIPWTSFTGFNLNVNNSPNYCLPIITAGRFINKTSNIYLPLSLQVHHSVCDGYHAALFMDRFQTLV | greater than 5 μmol/min/mg protein | –
